Experimental data: PMC6042961

By UniProt entry, the sequences of proteins in these tests, tags left out. Residues count along the entry.
UniProt P62258: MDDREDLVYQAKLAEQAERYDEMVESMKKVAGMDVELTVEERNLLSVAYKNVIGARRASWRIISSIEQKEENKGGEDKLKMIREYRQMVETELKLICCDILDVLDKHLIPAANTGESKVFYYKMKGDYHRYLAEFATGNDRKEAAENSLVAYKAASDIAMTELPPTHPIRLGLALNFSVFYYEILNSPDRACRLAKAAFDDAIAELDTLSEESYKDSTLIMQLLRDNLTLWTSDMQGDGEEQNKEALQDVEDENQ
UniProt P31947: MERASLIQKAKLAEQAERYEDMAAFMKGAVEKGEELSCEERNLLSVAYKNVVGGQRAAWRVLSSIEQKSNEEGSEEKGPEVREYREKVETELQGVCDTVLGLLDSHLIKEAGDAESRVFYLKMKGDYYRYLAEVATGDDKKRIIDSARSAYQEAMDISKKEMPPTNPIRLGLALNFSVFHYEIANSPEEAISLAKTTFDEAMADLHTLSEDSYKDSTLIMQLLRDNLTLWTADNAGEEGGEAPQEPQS
UniProt O00629: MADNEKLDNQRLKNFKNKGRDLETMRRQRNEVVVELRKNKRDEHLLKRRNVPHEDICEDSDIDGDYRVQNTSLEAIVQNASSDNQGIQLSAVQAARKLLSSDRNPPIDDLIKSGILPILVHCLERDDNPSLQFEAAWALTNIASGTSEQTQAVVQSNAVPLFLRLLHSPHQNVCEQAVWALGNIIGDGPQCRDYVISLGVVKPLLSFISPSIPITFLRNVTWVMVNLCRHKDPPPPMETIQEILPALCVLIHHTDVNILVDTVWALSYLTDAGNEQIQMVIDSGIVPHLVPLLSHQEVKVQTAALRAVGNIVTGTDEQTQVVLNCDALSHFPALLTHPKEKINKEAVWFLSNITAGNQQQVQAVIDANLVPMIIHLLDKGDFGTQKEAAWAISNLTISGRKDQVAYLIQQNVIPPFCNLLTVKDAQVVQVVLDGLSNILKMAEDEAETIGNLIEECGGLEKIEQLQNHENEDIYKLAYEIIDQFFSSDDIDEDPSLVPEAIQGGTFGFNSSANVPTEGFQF
UniProt P31946: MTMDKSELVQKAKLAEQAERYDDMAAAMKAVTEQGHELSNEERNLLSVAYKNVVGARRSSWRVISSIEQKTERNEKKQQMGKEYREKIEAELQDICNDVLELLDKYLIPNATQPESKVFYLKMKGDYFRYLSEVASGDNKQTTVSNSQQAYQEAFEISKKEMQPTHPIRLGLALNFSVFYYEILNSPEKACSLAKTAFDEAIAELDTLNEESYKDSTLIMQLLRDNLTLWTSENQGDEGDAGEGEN
UniProt P51812: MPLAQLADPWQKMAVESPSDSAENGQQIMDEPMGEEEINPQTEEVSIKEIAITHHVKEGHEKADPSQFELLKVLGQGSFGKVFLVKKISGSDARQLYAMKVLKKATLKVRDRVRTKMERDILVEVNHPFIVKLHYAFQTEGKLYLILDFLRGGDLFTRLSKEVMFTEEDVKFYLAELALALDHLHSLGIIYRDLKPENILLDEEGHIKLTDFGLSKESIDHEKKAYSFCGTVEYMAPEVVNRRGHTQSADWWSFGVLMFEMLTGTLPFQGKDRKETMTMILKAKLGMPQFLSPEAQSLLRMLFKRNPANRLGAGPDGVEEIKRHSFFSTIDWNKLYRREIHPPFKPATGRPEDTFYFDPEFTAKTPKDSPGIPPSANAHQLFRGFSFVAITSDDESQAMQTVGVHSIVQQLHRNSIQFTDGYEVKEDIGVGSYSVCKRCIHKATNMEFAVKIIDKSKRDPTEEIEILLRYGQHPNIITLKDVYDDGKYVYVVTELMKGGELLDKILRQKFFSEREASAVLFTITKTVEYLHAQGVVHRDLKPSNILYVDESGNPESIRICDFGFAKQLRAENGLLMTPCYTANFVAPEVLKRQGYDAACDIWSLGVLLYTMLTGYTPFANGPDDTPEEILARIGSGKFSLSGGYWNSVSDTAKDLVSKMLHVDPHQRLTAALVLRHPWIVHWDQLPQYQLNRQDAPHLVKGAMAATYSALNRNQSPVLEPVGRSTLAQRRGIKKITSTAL
UniProt P28482: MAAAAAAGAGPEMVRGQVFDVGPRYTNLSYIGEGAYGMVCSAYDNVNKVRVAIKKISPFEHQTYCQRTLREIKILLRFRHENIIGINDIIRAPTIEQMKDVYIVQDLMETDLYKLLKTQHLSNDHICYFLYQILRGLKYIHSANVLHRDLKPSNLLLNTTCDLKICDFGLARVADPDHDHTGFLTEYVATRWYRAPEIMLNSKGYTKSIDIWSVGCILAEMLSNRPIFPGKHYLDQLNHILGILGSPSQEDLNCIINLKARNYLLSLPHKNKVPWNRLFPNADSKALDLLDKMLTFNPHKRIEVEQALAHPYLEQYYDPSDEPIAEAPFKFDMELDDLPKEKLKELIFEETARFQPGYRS
UniProt Q9BXB1, residues 25-951: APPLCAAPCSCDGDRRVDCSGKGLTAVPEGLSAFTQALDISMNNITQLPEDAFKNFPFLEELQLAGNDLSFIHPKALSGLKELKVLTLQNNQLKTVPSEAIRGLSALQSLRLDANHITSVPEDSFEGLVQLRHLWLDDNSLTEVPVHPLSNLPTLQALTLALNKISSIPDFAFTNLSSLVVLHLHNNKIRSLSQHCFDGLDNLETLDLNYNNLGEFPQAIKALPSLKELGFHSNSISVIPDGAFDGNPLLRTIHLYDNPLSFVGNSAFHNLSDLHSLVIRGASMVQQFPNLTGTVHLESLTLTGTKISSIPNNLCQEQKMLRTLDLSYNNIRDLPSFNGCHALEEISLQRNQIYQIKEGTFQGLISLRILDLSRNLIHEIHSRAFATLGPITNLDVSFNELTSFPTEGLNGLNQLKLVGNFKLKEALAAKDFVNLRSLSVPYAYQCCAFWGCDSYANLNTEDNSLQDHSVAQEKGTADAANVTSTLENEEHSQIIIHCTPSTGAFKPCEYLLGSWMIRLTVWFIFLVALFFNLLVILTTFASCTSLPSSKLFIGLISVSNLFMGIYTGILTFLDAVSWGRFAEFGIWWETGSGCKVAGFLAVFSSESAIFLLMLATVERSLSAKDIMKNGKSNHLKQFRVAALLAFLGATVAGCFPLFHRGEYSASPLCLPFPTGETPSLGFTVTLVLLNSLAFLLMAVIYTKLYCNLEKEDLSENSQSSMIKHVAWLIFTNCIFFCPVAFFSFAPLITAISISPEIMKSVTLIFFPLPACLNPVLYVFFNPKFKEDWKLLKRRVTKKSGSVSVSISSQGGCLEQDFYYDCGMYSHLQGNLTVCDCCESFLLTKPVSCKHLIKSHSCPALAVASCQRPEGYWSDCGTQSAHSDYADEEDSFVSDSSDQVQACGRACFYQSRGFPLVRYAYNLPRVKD
UniProt P63104: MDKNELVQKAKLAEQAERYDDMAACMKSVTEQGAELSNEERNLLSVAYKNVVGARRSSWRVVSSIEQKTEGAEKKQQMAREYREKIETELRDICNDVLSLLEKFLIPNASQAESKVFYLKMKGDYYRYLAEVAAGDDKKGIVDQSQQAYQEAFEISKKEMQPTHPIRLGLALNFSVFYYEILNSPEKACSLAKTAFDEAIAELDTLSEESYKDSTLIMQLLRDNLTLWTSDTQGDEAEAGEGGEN
UniProt P11940: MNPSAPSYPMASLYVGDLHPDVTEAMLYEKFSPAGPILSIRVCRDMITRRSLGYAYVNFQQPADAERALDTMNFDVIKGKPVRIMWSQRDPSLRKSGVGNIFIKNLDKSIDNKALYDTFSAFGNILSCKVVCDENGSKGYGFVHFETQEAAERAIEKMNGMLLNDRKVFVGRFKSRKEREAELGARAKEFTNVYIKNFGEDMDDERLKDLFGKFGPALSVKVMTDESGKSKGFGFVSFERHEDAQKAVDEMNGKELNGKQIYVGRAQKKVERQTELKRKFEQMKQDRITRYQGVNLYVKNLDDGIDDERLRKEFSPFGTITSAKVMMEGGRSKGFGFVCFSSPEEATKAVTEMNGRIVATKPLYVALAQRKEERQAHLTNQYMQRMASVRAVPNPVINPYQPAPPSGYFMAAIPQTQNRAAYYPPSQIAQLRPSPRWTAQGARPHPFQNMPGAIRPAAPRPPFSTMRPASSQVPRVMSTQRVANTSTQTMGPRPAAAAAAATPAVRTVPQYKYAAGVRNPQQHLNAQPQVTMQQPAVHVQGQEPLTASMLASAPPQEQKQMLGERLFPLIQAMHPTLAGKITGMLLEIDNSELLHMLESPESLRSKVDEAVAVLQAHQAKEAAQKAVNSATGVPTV
UniProt P27361: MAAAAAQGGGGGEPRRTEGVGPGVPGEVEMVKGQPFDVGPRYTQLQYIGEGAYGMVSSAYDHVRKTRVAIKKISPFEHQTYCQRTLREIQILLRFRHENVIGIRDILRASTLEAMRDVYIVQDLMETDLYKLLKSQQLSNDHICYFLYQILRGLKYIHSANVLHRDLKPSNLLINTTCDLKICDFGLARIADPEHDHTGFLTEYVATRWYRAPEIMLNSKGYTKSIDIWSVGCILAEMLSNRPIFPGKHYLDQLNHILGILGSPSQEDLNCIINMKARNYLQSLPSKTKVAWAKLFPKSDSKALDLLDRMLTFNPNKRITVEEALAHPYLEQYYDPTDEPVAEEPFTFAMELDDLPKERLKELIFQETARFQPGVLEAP
UniProt Q5SWA1: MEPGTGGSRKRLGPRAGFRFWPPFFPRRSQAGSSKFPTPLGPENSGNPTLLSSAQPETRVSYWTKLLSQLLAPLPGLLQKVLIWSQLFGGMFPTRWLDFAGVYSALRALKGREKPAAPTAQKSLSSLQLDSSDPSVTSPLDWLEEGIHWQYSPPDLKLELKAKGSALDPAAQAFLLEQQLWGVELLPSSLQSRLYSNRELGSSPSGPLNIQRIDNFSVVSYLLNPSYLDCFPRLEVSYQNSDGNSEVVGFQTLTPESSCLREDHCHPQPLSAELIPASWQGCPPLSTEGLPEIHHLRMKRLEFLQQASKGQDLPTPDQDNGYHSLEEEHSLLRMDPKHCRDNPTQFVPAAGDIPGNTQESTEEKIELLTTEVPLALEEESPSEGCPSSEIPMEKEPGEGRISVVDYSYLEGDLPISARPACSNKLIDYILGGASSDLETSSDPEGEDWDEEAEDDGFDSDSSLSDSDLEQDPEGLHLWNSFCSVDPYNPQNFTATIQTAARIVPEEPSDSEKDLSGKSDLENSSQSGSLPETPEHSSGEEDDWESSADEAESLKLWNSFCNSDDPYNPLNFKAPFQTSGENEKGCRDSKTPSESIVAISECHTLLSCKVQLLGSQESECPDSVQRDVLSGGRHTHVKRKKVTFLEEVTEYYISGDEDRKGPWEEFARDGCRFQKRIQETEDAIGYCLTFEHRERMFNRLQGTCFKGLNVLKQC

T1: human iRhom2-3xHA (human) (UniProt Q6PJF5)
T1 sequence: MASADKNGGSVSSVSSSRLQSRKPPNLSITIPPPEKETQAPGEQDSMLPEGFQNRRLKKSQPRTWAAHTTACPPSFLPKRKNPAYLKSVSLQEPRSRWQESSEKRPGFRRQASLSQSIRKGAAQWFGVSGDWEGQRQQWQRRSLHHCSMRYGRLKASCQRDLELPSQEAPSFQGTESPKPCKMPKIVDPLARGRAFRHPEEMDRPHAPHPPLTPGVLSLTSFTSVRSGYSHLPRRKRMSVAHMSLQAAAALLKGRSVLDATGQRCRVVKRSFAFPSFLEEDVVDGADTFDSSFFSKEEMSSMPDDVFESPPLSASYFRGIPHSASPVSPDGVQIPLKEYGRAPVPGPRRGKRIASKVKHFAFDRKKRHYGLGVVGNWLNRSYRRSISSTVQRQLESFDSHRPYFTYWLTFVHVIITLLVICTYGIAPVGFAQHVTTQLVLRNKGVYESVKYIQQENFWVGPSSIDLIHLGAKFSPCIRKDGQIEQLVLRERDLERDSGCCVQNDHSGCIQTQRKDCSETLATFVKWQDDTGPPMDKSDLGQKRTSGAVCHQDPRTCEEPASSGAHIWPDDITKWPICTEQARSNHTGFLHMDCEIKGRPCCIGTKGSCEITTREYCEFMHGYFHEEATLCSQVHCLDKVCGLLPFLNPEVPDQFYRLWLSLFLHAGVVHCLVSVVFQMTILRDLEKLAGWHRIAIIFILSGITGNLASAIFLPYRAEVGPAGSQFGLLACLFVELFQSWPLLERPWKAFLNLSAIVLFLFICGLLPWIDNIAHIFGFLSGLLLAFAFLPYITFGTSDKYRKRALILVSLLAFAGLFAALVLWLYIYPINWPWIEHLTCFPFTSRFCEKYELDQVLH

B1: Tumor suppressor candidate 3 (protein, UniProt Q13454 42-348)
chain: QKKKENLLAEKVEQLMEWSSRRSIFRMNGDKFRKFIKAPPRNYSMIVMFTALQPQRQCSVCRQANEEYQILANSWRYSSAFCNKLFFSMVDYDEGTDVFQQLNMNSAPTFMHFPPKGRPKRADTFDLQRIGFAAEQLAKWIADRTDVHIRVFRPPNYSGTIALALLVSLVGGLLYLRRNNLEFIYNKTGWAMVSLCIVFAMTSGQMWNHIRGPPYAHKNPHNGQVSYIHGSSQAQFVAESHIILVLNAAITMGMVLLNEAATSKGDVGKRRIICLVGLGLVVFFFSFLLSIFRSKYHGYPYSDLDFE
B2: 14-3-3 protein gamma (protein, UniProt P61981 1-247)
chain: MVDREQLVQKARLAEQAERYDDMAAAMKNVTELNEPLSNEERNLLSVAYKNVVGARRSSWRVISSIEQKTSADGNEKKIEMVRAYREKIEKELEAVCQDVLSLLDNYLIKNCSETQYESKVFYLKMKGDYYRYLAEVATGEKRATVVESSEKAYSEAHEISKEHMQPTHPIRLGLALNYSVFYYEIQNAPEQACHLAKTAFDDAIAELDTLNEDSYKDSTLIMQLLRDNLTLWTSDQQDDDGGEGNN
B3: endogenous FRMD8 (protein, UniProt Q9BZ67 1-464)
chain: MDGTEGSAGQPGPAERSHRSSVSSVGARAADVLVYLADDTVVPLAVENLPSLSAHELHRAVREVLQLPDIALDVFALWLVSPLLEVQLKPKHQPYKLGRQWPELLLRFTSAPDDDVAMDEPFLQFRRNVFFPKRRELQIHDEEVLRLLYEEAKGNVLAARYPCDVEDCEALGALVCRVQLGPYQPGRPAACDLREKLDSFLPAHLCKRGQSLFAALRGRGARAGPGEQGLLNAYRQVQEVSSDGGCEAALGTHYRAYLLKCHELPFYGCAFFHGEVDKPAQGFLHRGGRKPVSVAISLEGVHVIDSREKHVLLGLRFQELSWDHTSPEEEEPILWLEFDGDSEGTPVNKLLKIYSKQAELMSSLIEYCIELSQAAEPAGPQDSATGSPSDPSSSLAPVQRPKLRRQGSVVSSRIQHLSTIDYVEDGKGIRRVKPKRTTSFFSRQLSLGQGSYTVVQPGDSLEQG
B4: Nuclear pore complex protein Nup50 (protein, UniProt Q9UKX7 1-468)
chain: MAKRNAEKELTDRNWDQEDEAEEVGTFSMASEEVLKNRAIKKAKRRNVGFESDTGGAFKGFKGLVVPSGGGRFSGFGSGAGGKPLEGLSNGNNITSAPPFASAKAAADPKVAFGSLAANGPTTLVDKVSNPKTNGDSQQPSSSGLASSKACVGNAYHKQLAALNCSVRDWIVKHVNTNPLCDLTPIFKDYEKYLANIEQQHGNSGRNSESESNKVAAETQSPSLFGSTKLQQESTFLFHGNKTEDTPDKKMEVASEKKTDPSSLGATSASFNFGKKVDSSVLGSLSSVPLTGFSFSPGNSSLFGKDTTQSKPVSSPFPTKPLEGQAEGDSGECKGGDEEENDEPPKVVVTEVKEEDAFYSKKCKLFYKKDNEFKEKGIGTLHLKPTANQKTQLLVRADTNLGNILLNVLIPPNMPCTRTGKNNVLIVCVPNPPIDEKNATMPVTMLIRVKTSEDADELHKILLEKKDA
B5: 14-3-3 protein theta (protein, UniProt P27348 1-245)
chain: MEKTELIQKAKLAEQAERYDDMATCMKAVTEQGAELSNEERNLLSVAYKNVVGGRRSAWRVISSIEQKTDTSDKKLQLIKDYREKVESELRSICTTVLELLDKYLIANATNPESKVFYLKMKGDYFRYLAEVACGDDRKQTIDNSQGAYQEAFDISKKEMQPTHPIRLGLALNFSVFYYEILNNPELACTLAKTAFDEAIAELDTLNEDSYKDSTLIMQLLRDNLTLWTSDSAGEECDAAEGAEN
B6: 14-3-3 protein eta (protein, UniProt Q04917 1-246)
chain: MGDREQLLQRARLAEQAERYDDMASAMKAVTELNEPLSNEDRNLLSVAYKNVVGARRSSWRVISSIEQKTMADGNEKKLEKVKAYREKIEKELETVCNDVLSLLDKFLIKNCNDFQYESKVFYLKMKGDYYRYLAEVASGEKKNSVVEASEAAYKEAFEISKEQMQPTHPIRLGLALNFSVFYYEIQNAPEQACLLAKQAFDDAIAELDTLNEDSYKDSTLIMQLLRDNLTLWTSDQQDEEAGEGN
B7: Ras-related protein Rap-2b (protein, UniProt P61225 1-183)
chain: MREYKVVVLGSGGVGKSALTVQFVTGSFIEKYDPTIEDFYRKEIEVDSSPSVLEILDTAGTEQFASMRDLYIKNGQGFILVYSLVNQQSFQDIKPMRDQIIRVKRYERVPMILVGNKVDLEGEREVSYGEGKALAEEWSCPFMETSAKNKASVDELFAEIVRQMNYAAQPNGDEGCCSACVIL
B8: Semaphorin-4F (protein, UniProt O95754 35-770)
chain: RVPRSVPRTSLPISEADSCLTRFAVPHTYNYSVLLVDPASHTLYVGARDTIFALSLPFSGERPRRIDWMVPEAHRQNCRKKGKKEDECHNFVQILAIANASHLLTCGTFAFDPKCGVIDVSRFQQVERLESGRGKCPFEPAQRSAAVMAGGVLYAATVKNYLGTEPIITRAVGRAEDWIRTDTLPSWLNAPAFVAAVALSPAEWGDEDGDDEIYFFFTETSRAFDSYERIKVPRVARVCAGDLGGRKTLQQRWTTFLKADLLCPGPEHGRASSVLQDVAVLRPELGAGTPIFYGIFSSQWEGATISAVCAFRPQDIRTVLNGPFRELKHDCNRGLPVVDNDVPQPRPGECITNNMKLRHFGSSLSLPDRVLTFIRDHPLMDRPVFPADGHPLLVTTDTAYLRVVAHRVTSLSGKEYDVLYLGTEDGHLHRAVRIGAQLSVLEDLALFPEPQPVENMKLYHSWLLVGSRTEVTQVNTTNCGRLQSCSECILAQDPVCAWSFRLDECVAHAGEHRGLVQDIESADVSSLCPKEPGERPVVFEVPVATAAHVVLPCSPSSAWASCVWHQPSGVTALTPRRDGLEVVVTPGAMGAYACECQEGGAAHVVAAYSLVWGSQRDAPSRAHTVGAGLAGFFLGILAASLTLILIGRRQQRRRQRELLARDKVGLDLGAPPSGTTSYSQDPPSPSPEDERLPLALAKRGSGFGGFSPPFLLDPCPSPAHIRLTGAPLATCDETSI
B9: KIF1-binding protein (protein, UniProt Q96EK5 1-621)
chain: MANVPWAEVCEKFQAALALSRVELHKNPEKEPYKSKYSARALLEEVKALLGPAPEDEDERPEAEDGPGAGDHALGLPAEVVEPEGPVAQRAVRLAVIEFHLGVNHIDTEELSAGEEHLVKCLRLLRRYRLSHDCISLCIQAQNNLGILWSEREEIETAQAYLESSEALYNQYMKEVGSPPLDPTERFLPEEEKLTEQERSKRFEKVYTHNLYYLAQVYQHLEMFEKAAHYCHSTLKRQLEHNAYHPIEWAINAATLSQFYINKLCFMEARHCLSAANVIFGQTGKISATEDTPEAEGEVPELYHQRKGEIARCWIKYCLTLMQNAQLSMQDNIGELDLDKQSELRALRKKELDEEESIRKKAVQFGTGELCDAISAVEEKVSYLRPLDFEEARELFLLGQHYVFEAKEFFQIDGYVTDHIEVVQDHSALFKVLAFFETDMERRCKMHKRRIAMLEPLTVDLNPQYYLLVNRQIQFEIAHAYYDMMDLKVAIADRLRDPDSHIVKKINNLNKSALKYYQLFLDSLRDPNKVFPEHIGEDVLRPAMLAKFRVARLYGKIITADPKKELENLATSLEHYKFIVDYCEKHPEAAQEIEVELELSKEMVSLLPTKMERFRTKMALT
B10: Protein lin-7 homolog C (protein, UniProt Q9NUP9 1-197)
chain: MAALGEPVRLERDICRAIELLEKLQRSGEVPPQKLQALQRVLQSEFCNAVREVYEHVYETVDISSSPEVRANATAKATVAAFAASEGHSHPRVVELPKTEEGLGFNIMGGKEQNSPIYISRIIPGGIADRHGGLKRGDQLLSVNGVSVEGEHHEKAVELLKAAQGKVKLVVRYTPKVLEEMESRFEKMRSAKRRQQT
B11: Signal peptidase subunit SEC11C (protein, UniProt Q9BY50 1-192)
chain: MVRAGAVGAHLPASGLDIFGDLKKMNKRQLYYQVLNFAMIVSSALMIWKGLIVLTGSESPIVVVLSGSMEPAFHRGDLLFLTNFREDPIRAGEIVVFKVEGRDIPIVHRVIKVHEKDNGDIKFLTKGDNNEVDDRGLYKEGQNWLEKKDVVGRARGFLPYVGMVTIIMNDYPKFKYALLAVMGAYVLLKRES

Biological target: T1, human iRhom2-3xHA (human)
Test: affinity purification with mass spectrometry; anti-HA immunoprecipitation from HEK293T cells stably expressing human iRhom2-3xHA; bead eluates analysed by label-free mass spectrometry; UNC93B1-3xHA as negative control; three biological replicates

Row | binding | Molecule
1 | binds | B1
2 | binds | B2
3 | binds | B3
4 | binds | B4
5 | binds | B5
6 | binds | B6
7 | binds | B7
8 | binds | B8
9 | binds | B9
10 | binds | B10
11 | binds | B11

Biological target: T1, human iRhom2-3xHA (human)
Test: as above
Remark: another data set of the same source

Row | binding | Molecule
12 | binds | 14-3-3 protein epsilon (from UniProt P62258 1-255)
13 | binds | 14-3-3 protein sigma (from UniProt P31947 1-248)
14 | binds | Importin subunit alpha-3 (from UniProt O00629 1-521)
15 | binds | 14-3-3 protein alpha/beta (from UniProt P31946 1-246)
16 | binds | Ribosomal protein S6 kinase alpha-3 (from UniProt P51812 1-740) (enzyme)
17 | binds | Mitogen-activated protein kinase 1 (from UniProt P28482 1-360) (enzyme)
18 | binds | Leucine-rich repeat-containing GPCR 4 (from UniProt Q9BXB1 25-951) (receptor)
19 | binds | 14-3-3 protein zeta/delta (from UniProt P63104 1-245)
20 | binds | Polyadenylate-binding protein 1; Polyadenylate-binding protein 3 (from UniProt P11940 1-636)
21 | binds | Mitogen-activated protein kinase 3 (from UniProt P27361 1-379) (enzyme)
22 | binds | Protein phosphatase 1 subunit 15B (from UniProt Q5SWA1 1-713)

These are yes or no findings as the source states them, for the method shown. Binding seen in cells or lysates may run through a third protein. Here binding means that the protein was enriched with, or labelled near, the bait; the list need not be complete.
